Assay results as given in patent US20250270343A1.
Residue numbers refer to the chain shown, from its start. No constants are given. Whether binding was seen depends on the method and setting. Some binding calls cover weakened binding; strength is not graded here. Each block holds one binder with its values, some of them ahead of it.

Protein sequences, listed by entry. Tags and fused reporters are not part of them. Residues count along the entry.
UniProt Q99P91, residues 23-502: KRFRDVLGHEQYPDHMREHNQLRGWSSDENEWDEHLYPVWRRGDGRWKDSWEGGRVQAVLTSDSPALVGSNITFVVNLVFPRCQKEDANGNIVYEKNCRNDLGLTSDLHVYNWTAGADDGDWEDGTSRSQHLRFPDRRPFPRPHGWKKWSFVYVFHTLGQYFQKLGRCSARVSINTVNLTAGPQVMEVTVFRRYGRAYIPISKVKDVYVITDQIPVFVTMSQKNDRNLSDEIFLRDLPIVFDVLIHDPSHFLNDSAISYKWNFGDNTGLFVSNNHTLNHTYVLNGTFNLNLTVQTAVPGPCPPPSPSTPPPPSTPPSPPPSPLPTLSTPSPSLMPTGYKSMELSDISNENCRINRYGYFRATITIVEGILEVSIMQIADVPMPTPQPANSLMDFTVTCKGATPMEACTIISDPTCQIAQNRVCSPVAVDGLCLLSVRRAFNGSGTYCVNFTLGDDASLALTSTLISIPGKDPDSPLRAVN
UniProt Q14956, residues 23-498: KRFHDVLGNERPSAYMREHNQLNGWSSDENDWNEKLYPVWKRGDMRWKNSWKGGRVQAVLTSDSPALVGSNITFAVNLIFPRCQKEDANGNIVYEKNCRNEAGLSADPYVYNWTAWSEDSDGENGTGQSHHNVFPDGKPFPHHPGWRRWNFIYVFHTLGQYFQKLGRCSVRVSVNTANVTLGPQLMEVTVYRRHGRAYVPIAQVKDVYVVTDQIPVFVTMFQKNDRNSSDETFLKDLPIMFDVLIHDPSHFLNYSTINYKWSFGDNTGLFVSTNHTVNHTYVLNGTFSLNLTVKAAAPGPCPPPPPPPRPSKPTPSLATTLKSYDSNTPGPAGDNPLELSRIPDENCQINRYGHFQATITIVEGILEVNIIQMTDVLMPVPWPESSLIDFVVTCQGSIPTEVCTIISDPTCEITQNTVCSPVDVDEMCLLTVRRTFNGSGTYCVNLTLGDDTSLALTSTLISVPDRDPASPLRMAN

Experiments:
[1] = biological target: soluble mouse GPNMB-Fc polypeptide (Fc of human IgG1 or mouse IgG2A, not specified for the assay) (mouse) (UniProt Q99P91); test: FACS ligand binding assay: 2 ug/mL moGPNMB-Fc pre-complexed with rising Fab2, then SVEC4-10 cells; blocked ligand: unidentified ligand(s) on SVEC4-10 cells; bound GPNMB-Fc detected with anti-human IgG1 secondary
[2] = biological target: soluble human GPNMB-Fc polypeptide (human) (UniProt Q14956); test: FACS ligand binding assay: 2 ug/mL huGPNMB-Fc pre-complexed with rising Fab2, then SVEC4-10 cells; ligand side: unidentified ligand(s) on SVEC4-10 cells; bound GPNMB-Fc detected with anti-human IgG1 secondary
[3] = biological target: soluble mouse GPNMB-Fc polypeptide (mouse IgG2A Fc) (mouse) (UniProt Q99P91); test: FACS ligand binding assay: 2 ug/mL moGPNMB-Fc (mouse IgG2A Fc) pre-complexed with rising antibody, then SVEC4-10 cells; blocked ligand: unidentified ligand(s) on SVEC4-10 cells; bound moGPNMB-Fc detected with anti-mouse IgG2A
[4] = biological target: soluble human GPNMB-Fc polypeptide (human) (UniProt Q14956); test: FACS ligand binding assay: 2 ug/mL huGPNMB-Fc pre-complexed with rising Fab2, then SVEC4-10 cells; blocked ligand: unidentified ligand(s) on SVEC4-10 cells; bound GPNMB-Fc detected with anti-human IgG1 secondary
[5] = biological target: soluble mouse GPNMB-Fc polypeptide (Fc of human IgG1 or mouse IgG2A, not specified for the assay) (mouse) (UniProt Q99P91); test: FACS ligand binding assay: 2 ug/mL moGPNMB-Fc pre-complexed with rising Fab2, then SVEC4-10 cells; ligand side: unidentified ligand(s) on SVEC4-10 cells; bound GPNMB-Fc detected with anti-human IgG1 secondary
[6] = biological target: soluble cynomolgus GPNMB (recombinant extracellular domain) (cynomolgus); test: SPR binding
[7] = biological target: soluble human GPNMB (recombinant extracellular domain) (human) (UniProt Q14956); test: SPR binding
[8] = biological target: full-length untagged human GPNMB expressed on cells (human) (UniProt Q14956); test: cell binding
[9] = biological target: soluble cynomolgus GPNMB (recombinant extracellular domain) (cynomolgus); test: SPR binding kinetics
[10] = biological target: soluble human GPNMB (recombinant extracellular domain) (human) (UniProt Q14956); test: SPR binding kinetics
[11] = biological target: full-length untagged human GPNMB expressed on cells (human) (UniProt Q14956); test: FACS titration on cells
[12] = biological target: full-length untagged human GPNMB expressed on cells (human) (UniProt Q14956); test: FACS on Freestyle293 cells stably expressing human GPNMB; single antibody concentration (not given); APC anti-human IgG secondary; MFI as fold over background
[13] = biological target: soluble mouse GPNMB-Fc polypeptide (mouse IgG2A Fc) (mouse) (UniProt Q99P91); test: FACS ligand binding assay: 2 ug/mL moGPNMB-Fc (mouse IgG2A Fc) pre-complexed with rising antibody, then SVEC4-10 cells; ligand side: unidentified ligand(s) on SVEC4-10 cells; bound moGPNMB-Fc detected with anti-mouse IgG2A

binding [1]: binds
B1: recombinant Fab2 fragment of anti-GPNMB antibody GPN-41 (protein)
VH: QLQLQQSGTEVVKPGASVKIPCKASGYAFSSYWMNWVKQRPGKGLEWIGQIYPGDGDTNDNGKFEGKATLTVDKSSNTAYIQLSSLTSEDSAVYFCARSPLHLRGSMDYWGQGTSVTVSS
VL: SIVMTQTPKFLLVSAGDRVTITCKASQSVSNDVAWFQQKPGQSPELLIYSASNRYTGVPDRFTASGYGTDFTFTISAVQAEDLAVYFCQQNYYSPFTFGGGTRLEIK

binding [2]: binds
B2: recombinant Fab2 fragment of anti-GPNMB antibody GPN-65 (protein)
VH: B1 VH
VL: B1 VL with A64G, A77T

binding [3]: binds
B3: anti-GPNMB antibody GPN-35 (antibody, human IgG1, V domains shown)
VH: EVQLVESGGGSVRPGRSLKLSCAAAGFTFSDYYMTWVRQAPTKGLEWVASINHDGGGTYYRDSVKGRFTISRDNARSSLYLQMDSLRSEDTGTYYCTTRAGWHWGQGVMVTVSS
VL: DIQMTQSPASLSASLGETVSIECLASEDIYNYLTWYQQKPGKSPQVLIYSASGLQDGVPSRFSGSGSGRQYSLKINGLESEDAATYFCLQDSEYPLTFGSGTKLEIK

binding [1]: binds | binding [4]: binds
B4: recombinant Fab2 fragment of anti-GPNMB antibody GPN-35 (protein)
VH: B3 VH
VL: B3 VL

binding [3]: binds
B5: anti-GPNMB antibody GPN-48 (antibody, human IgG1, V domains shown)
VH: QVQLQQSGPELVKPGASVKLSCRASGYGFSSFWMNWVKQRPGKGLEWIGRIYPGKGDTLYNGKFKDKATLTADESSSTAYMQLSSLTSEDSAVYFCARSIYYYDYWYFDVWDTGTTVTVSS
VL: DIVMTQSHKFMSTSVGDRVNITCKASQDVNSAIAWYQQKPGQSPKLLIYSASYRFIGVPDRFTGSGSGTGFTFTISSVQAEDLAVYYCQQHYTTPLTFGAGTKLELK

binding [1]: binds
B6: recombinant Fab2 fragment of anti-GPNMB antibody GPN-48 (protein)
VH: B5 VH
VL: B5 VL

binding [5]: binds | binding [4]: binds
B7: recombinant Fab2 fragment of anti-GPNMB antibody GPN-37 (protein)
VH: EVQLVESGGGLVQPGRSLKLSCAASGFTFSSKSGMAWVRQAPTKGLEWVASISNGGGDTYYRDSVKGRFTISRDNAKNTQYLQMDSLRPEDTATYYCARHRDYGYDAYFDYWGQGVMVTVSS
VL: DIQMTQSPASLSASLGETVTIECLASEDIYSSLAWYQQKPGKSPQLLIYDASSLQDGVPSRFSGSESGTQYSLEINSLQSEDAATYFCQQHHDYPYTFGAGTKLELK

binding [6]: binds | binding [7]: binds | binding [8]: binds | binding [9]: binds | binding [10]: binds | binding [11]: binds | binding [12]: binds
B8: anti-GPNMB antibody GPN-03 (antibody, human IgG1, V domains shown)
VH: QVQLQQSGPELVKPGASVKLSCKASGYTFTNYYMYWVKQRPGQGLEWIGEINPRNGGTNFNEKFKSKATLTVDKSSSTAYMQLSSLTFEDSAVYYCTTGLAYWGQGTLVTVSA
VL: DVVMTQTPLSLPVSLGDQASISCRSSQSLVHSDGNTYLHWYLQKPGQSPKLLIYKVSTRFSGVPDRFSGSGSGTDFTLKISRVEAEDLGVYFCSQSTHVPWTFGGGTKLEIK

binding [13]: binds
B9: anti-GPNMB antibody GPN-42 (antibody, human IgG1, V domains shown)
VH: DVKLVESGEDLVKPGGSLKLSCAASGFTFSSYAMSWVRQTPEKRLEWVAYISSGGDYIYYADTVKGRFTISRDNARNTLYLQMSSLKSEDTAMYYCTRDRYYDYDVRDYYTMDYWGQGTSVTVSS
VL: B8 VL with V3M, D33N, Y41F, Y54F, K55R, T58N, S70R, S96T, W101R, K108T

binding [3]: binds
B10: anti-GPNMB antibody GPN-43 (antibody, human IgG1, V domains shown)
VH: EVQLQQSGPELVKPGASVKISCKASGYTFTDYYMNWVRQSHGKSLEWIGDINPYHGGSTYNQKIKVKATLTVDKSSSTAYMELRSLTSEDSAVYYCARNWPYFDYWGQGTTLTVSS
VL: DIQMTQSPASLSASVGETVTITCRASENIYSFLVWYQQKQGKSPQLLVYNAKTLAEGVPSRFSGSGSGTQFSLKISSLQPEDFGSYYCQHHFGTPPYTFGGGTKLEIK

binding [1]: binds
B11: recombinant Fab2 fragment of anti-GPNMB antibody GPN-43 (protein)
VH: B10 VH
VL: B10 VL

binding [13]: binds
B12: anti-GPNMB antibody GPN-33 (antibody, human IgG1, V domains shown)
VH: EVQLVESGGSLVQPGGSLKLSCVASGYTFSNYWMDWVRQTPGKSLEWIGEINTDGSKTNYAPSIKDRFTISRDNAKSTLYLQMSNVKADDTAIYYCTRGPGAWGQGTSVTVSS
VL: DIVMTQTPLSLSVAIGQSASISCKSSQSLKFSDGKTYLNWVFQSPGQSPKRLIYQVSKLDSGVPDRFSGTGSETDFILKISRVEAEDLGVYYCCQGSYSPWTIGGGTKLELK
